In the supplement of paper PMC11006884:
Most of the targets with a hit are listed elsewhere, so they are rarer here than in the full data. This is a noisy data set. The list shows a part of the results, in another mix than the full data.

Amino acid sequences for entries named in this document (tags omitted). A change or cut given only in a name is not applied to a line headed by its entry.
UniProt Q8WUM4: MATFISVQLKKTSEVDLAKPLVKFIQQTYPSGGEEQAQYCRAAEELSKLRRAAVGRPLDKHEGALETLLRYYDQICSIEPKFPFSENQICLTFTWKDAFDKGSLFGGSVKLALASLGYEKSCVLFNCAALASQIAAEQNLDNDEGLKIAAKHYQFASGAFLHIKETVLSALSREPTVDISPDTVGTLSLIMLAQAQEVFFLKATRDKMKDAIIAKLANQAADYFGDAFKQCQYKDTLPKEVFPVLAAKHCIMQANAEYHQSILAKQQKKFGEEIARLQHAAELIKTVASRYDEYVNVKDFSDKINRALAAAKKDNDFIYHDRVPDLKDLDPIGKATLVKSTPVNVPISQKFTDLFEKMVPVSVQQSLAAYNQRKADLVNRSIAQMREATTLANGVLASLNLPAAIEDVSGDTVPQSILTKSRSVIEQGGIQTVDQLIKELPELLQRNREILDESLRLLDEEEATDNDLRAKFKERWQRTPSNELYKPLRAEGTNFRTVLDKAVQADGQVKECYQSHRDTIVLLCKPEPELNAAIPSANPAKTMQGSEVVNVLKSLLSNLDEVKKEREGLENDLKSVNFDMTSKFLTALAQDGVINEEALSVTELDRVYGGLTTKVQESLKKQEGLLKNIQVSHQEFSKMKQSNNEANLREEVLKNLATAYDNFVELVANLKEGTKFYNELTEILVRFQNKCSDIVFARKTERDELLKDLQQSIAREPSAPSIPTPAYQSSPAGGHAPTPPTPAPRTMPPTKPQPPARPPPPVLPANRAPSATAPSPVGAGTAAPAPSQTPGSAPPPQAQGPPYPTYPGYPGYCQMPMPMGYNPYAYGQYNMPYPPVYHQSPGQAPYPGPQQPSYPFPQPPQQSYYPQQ
UniProt Q8WWH5: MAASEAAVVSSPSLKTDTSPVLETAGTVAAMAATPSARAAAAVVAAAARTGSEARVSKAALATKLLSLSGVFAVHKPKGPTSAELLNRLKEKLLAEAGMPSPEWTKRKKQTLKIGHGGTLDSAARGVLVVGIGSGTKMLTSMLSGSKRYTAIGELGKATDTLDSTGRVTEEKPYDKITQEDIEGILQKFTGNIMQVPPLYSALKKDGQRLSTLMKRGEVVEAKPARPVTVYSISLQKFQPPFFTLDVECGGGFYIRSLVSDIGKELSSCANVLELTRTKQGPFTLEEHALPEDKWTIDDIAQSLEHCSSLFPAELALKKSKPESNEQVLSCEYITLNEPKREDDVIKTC
UniProt Q8TD19: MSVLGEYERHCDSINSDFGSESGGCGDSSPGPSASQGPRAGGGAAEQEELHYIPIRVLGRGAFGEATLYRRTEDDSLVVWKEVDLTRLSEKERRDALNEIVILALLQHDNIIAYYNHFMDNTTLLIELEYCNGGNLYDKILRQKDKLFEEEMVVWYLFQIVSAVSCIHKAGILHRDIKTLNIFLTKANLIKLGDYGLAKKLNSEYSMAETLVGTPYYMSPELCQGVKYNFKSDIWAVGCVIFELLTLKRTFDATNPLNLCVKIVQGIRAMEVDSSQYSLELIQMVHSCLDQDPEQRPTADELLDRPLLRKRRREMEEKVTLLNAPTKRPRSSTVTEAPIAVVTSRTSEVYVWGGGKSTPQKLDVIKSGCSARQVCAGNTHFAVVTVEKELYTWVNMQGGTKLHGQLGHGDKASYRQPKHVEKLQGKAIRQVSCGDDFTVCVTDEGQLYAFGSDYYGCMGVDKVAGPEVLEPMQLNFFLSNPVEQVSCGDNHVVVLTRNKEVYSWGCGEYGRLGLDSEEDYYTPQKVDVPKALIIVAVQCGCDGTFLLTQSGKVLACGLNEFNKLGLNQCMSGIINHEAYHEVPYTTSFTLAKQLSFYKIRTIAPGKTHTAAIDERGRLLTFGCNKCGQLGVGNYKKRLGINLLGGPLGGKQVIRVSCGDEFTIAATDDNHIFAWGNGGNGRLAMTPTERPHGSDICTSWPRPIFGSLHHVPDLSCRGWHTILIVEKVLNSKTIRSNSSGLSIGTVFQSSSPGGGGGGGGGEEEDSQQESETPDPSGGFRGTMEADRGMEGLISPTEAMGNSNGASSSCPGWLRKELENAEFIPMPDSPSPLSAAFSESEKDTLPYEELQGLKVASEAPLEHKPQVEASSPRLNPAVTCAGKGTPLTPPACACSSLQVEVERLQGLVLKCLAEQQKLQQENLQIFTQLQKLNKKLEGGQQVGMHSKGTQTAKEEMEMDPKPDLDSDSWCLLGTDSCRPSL
UniProt Q8TEX9: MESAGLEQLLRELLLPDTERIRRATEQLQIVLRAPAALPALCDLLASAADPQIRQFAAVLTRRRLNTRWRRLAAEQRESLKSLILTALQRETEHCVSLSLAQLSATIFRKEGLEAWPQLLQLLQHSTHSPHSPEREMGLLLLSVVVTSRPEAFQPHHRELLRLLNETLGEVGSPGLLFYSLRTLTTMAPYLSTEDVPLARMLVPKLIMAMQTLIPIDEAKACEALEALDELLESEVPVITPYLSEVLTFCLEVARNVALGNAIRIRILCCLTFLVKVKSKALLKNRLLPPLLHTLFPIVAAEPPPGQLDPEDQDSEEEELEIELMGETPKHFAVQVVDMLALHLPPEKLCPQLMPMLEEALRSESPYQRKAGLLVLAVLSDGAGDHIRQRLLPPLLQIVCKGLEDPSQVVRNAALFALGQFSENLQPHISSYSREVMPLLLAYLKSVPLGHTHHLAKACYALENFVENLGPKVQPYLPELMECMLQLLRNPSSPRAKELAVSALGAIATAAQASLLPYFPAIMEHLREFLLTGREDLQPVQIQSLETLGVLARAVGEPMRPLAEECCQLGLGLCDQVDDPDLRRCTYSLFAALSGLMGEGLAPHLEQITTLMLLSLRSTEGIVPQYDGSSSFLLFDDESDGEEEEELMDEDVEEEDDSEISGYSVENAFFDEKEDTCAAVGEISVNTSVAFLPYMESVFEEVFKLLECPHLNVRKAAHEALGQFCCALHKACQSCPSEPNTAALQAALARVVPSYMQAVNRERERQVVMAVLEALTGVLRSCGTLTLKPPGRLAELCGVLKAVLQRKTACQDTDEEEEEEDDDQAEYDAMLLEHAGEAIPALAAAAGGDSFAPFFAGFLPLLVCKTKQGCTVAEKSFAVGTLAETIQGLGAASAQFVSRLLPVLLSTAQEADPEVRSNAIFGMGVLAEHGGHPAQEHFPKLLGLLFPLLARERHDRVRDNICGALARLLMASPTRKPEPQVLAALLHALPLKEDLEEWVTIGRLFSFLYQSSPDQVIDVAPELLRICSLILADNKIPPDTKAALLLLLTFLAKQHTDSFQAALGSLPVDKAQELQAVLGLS
UniProt Q8WZA9: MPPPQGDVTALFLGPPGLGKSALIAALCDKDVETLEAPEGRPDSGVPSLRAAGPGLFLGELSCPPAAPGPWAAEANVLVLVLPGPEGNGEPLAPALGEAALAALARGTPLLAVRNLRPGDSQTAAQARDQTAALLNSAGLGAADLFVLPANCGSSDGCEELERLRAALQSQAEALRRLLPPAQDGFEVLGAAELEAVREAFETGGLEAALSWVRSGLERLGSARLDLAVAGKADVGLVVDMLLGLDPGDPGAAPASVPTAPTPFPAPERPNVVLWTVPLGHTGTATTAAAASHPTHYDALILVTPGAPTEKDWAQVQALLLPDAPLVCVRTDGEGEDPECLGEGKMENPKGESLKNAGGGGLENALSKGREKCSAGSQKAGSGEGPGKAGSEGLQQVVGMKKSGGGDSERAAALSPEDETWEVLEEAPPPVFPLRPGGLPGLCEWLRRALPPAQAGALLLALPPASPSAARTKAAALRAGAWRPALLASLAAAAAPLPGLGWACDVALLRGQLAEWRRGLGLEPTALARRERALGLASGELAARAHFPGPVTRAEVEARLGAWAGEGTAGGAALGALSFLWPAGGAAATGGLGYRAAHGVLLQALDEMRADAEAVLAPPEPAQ
UniProt Q8N1F7: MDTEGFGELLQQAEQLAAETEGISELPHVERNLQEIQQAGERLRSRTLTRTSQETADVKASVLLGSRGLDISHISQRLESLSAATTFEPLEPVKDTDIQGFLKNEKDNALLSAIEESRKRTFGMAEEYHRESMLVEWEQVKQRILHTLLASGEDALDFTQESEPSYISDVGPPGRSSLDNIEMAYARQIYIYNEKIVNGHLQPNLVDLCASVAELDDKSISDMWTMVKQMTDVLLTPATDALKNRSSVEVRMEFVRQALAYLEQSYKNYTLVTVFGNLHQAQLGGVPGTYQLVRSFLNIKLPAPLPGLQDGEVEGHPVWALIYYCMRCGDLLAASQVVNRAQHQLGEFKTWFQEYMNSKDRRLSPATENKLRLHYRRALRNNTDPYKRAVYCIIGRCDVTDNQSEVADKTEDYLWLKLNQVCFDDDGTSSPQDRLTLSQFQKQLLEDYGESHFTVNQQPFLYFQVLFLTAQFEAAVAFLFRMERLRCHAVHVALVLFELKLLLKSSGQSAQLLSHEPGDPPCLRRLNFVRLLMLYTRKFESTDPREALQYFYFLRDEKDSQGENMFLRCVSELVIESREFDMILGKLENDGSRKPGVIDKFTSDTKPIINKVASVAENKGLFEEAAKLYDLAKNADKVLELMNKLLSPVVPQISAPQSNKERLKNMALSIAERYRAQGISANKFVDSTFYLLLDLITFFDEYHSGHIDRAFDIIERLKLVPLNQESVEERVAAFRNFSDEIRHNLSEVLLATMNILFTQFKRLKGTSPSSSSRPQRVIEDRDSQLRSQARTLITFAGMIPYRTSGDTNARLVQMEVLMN
UniProt Q8WZ64: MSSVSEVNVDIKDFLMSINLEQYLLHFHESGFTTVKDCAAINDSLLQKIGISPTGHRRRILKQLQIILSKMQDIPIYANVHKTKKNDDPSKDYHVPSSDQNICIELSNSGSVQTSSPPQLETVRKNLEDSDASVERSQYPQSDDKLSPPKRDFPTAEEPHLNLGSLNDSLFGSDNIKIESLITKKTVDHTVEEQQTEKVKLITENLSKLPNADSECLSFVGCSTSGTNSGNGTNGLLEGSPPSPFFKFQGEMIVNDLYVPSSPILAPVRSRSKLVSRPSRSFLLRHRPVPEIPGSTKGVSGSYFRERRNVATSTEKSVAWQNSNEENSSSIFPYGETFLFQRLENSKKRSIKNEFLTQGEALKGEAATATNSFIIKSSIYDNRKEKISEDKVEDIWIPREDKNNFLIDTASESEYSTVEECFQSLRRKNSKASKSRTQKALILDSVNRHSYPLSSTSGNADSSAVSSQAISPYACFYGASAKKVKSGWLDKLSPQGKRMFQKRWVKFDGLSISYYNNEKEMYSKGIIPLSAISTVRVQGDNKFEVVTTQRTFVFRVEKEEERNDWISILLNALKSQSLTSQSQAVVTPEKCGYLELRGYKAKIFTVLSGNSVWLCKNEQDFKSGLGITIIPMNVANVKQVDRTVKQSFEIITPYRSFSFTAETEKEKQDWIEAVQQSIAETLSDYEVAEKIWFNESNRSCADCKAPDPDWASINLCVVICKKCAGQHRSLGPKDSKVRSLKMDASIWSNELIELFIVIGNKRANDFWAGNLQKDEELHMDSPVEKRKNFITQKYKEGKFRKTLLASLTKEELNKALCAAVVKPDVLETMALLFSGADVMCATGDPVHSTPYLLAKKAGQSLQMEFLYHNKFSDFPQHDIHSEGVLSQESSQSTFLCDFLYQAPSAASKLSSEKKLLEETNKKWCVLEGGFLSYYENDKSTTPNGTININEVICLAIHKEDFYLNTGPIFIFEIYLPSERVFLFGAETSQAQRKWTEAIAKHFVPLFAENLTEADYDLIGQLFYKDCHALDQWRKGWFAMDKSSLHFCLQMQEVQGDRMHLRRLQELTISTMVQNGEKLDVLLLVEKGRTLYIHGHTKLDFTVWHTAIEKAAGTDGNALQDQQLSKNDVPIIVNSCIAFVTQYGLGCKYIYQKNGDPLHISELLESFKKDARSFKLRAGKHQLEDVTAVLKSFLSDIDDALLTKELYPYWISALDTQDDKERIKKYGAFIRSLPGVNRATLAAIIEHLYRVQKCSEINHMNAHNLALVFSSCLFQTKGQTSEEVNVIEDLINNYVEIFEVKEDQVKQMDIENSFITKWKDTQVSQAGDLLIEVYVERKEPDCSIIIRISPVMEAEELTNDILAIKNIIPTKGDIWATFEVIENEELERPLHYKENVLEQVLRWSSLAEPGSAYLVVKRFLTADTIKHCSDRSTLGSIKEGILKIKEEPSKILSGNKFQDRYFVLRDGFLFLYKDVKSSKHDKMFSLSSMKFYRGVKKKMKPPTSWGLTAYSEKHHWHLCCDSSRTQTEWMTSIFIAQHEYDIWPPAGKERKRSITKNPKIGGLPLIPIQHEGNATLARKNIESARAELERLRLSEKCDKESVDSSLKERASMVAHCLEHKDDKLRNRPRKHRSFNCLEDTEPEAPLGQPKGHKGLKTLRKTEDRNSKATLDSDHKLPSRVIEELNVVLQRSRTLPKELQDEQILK

Compound: COC(=O)/C=C/c1ccccc1 [methyl cinnamate]
Test: log2 ratio of iodoacetamide-alkyne labeling of the cysteine site, DMSO over compound (competition); higher = stronger covalent engagement of the cysteine by the compound, active = 1 or more
Conditions: 500 µM; treatment time 1 h; system: HEK293T cell lysate
Procedure, shortened: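 HEK293T lysate (2 mg/mL) was treated with DMSO or electrophile (500 µM, 1 h, ambient temperature), then iodoacetamide alkyne (1 h), clicked to sCIP-TMT reagents, pooled, trypsin-digested overnight at 37 °C, streptavidin-enriched and acid-eluted. Peptides were run on Orbitrap Eclipse LC-MS/MS with FAIMS and quantified in FragPipe. The log2 competition ratio per cysteine is mean control-channel over mean compound-channel reporter intensity. Duplicate channels and three replicates were used, and cysteines quantified in only one replicate were excluded.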

| Target | log2 ratio of iodoacetamide-alkyne labeling |
| --- | --- |
| TTC5 C439 (UniProt Q8N0Z6) | inactive: -0.248 |
| PDCD6IP C40 (UniProt Q8WUM4) | inactive: 0.374 |
| LRRC47 C190 (UniProt Q8N1G4) | inactive: -0.176 |
| TRUB1 C307 (UniProt Q8WWH5) | inactive: 0.134 |
| PDCD6IP C524 (UniProt Q8WUM4) | inactive: 0.0858 |
| NEK9 C25 (UniProt Q8TD19) | inactive: 0.406 |
| NEDD1 C541 (UniProt Q8NHV4) | inactive: 0.0951 |
| IPO4 C782 (UniProt Q8TEX9) | inactive: 0.175 |
| UniProt Q8WZA9_C158 | inactive: 0.232 |
| UniProt Q8N1I0_C1857 | inactive: 0.319 |
| NUP93 C422 (UniProt Q8N1F7) | inactive: 0.142 |
| UniProt Q8WZ64_C1635 | inactive: 0.297 |
| PIEZO1 C383 (UniProt Q92508) | inactive: 0.0926 |

Part of the list above, reformatted.
Target | log2 ratio of iodoacetamide-alkyne labeling
PDCD6IP C524 (UniProt Q8WUM4) | inactive: 0.0858
NEK9 C25 (UniProt Q8TD19) | inactive: 0.406
